Test results: patent US6420430B1, “Use of inhibitors of the sodium-hydrogen exchanger for preparing a medicament for preventing age-related disorders, and for prolonging life” (Aventis Pharma Deutschland GmbH, priority 1998, dated 2002)

Tested on: WKY rats
Assay: Interim analysis after 30 months: organ weights (heart, ventricles, kidneys, spleen)
Type: in vivo, rat
Conditions: p<0.05 versus placebo
Method: The interim analysis was carried out after 80% of the placebo-treated animals had died; this was the case after 30 months. 10 animals of each group were selected at random and anesthetized (hexobarbital, 80 mg·kg^−1, i.p.). Blood samples were then taken, and the thoracic aortae and the hearts were prepared and biochemically and/or functionally examined (Linz et al., 1997). In accordance with the method described by Langendorff, the hearts were perfused with an oxygen-saturated (95% O2, […]), non-circulating Krebs-Henseleit solution of the following composition (mmol/l): NaCl, 118; KCl, 4.7; CaCl2, 2.5; MgSO4, 1.6; NaHCO3, 24.9; KH2PO4, 1.2; glucose, 5.5; Na-pyruvate, 2.0, using a perfusion pressure of 60 mm Hg. The pressure in the left ventricle and the pulse frequency of the heart were measured using a balloon catheter. The coronary blood flow was determined using an electromagnetic flow gage. After a washing phase of 5 minutes, 1 ml of the coronary effluent was taken off for measuring the lactate concentrations and the lactate dehydrogenase and creatine kinase activities. The weights of the entire heart and the weights of the left and the right ventricle were then determined. The left ventricle was fixed in 10% strength neutral buffered formalin solution and embedded in paraffin for light-microscopic examination.

**Q.** `CC(C)c1ccc(C(=O)N=C(N)N)cc1S(C)(=O)=O.CS(=O)(=O)O` [Cariporide, cariporide] was tested. Which “weights of the spleens” value did it give?
**A.** 255±13 mg/100 g of BW
